In this assay the target is Sendai virus nucleoprotein in nucleocapsids released from wild-type SeV virions (Sendai virus) (UniProt P04858). The experiment in a line: cryo-EM imaging of filaments; purified SeV virions lysed with 2% Triton X-100 for 6 h at 4 °C, put directly on cryo-EM grids.

Amino acid sequences for entries named in this document (tags omitted).
UniProt P04858: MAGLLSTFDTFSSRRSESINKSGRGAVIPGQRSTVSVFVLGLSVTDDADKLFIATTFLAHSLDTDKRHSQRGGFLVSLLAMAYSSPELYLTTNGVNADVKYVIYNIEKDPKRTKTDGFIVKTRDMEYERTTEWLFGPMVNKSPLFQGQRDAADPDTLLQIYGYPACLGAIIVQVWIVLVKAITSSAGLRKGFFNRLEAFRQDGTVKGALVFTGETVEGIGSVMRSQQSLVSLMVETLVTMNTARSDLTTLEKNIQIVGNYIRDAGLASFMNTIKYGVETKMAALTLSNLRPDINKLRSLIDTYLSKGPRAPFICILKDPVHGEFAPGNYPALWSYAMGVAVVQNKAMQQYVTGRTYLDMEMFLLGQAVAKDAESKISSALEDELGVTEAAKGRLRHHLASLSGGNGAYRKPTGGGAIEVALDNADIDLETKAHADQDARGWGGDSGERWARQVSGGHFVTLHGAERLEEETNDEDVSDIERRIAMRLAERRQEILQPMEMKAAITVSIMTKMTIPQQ

From publication PMC8062630, “Structure and assembly of double-headed Sendai virus nucleocapsids” (Communications Biology, 2021) come the findings set out here.

These are yes or no findings as the source states them, for the method shown. Some entries that bind do so weakly or less than the wild type.

Take “Sendai virus nucleoprotein in nucleocapsids released from wild-type SeV virions (from UniProt P04858 1-517)”: the binding entry is given as “binds”.
